This passage reports binding results from article PMC8643467, “Appearance of peanut agglutinin in the blood circulation after peanut ingestion promotes endothelial secretion of metastasis-promoting cytokines” (Carcinogenesis, 2021).

Chains of the proteins cited; added tags and fusions are not shown. Residues count along the entry.
UniProt P43121, residues 24-646: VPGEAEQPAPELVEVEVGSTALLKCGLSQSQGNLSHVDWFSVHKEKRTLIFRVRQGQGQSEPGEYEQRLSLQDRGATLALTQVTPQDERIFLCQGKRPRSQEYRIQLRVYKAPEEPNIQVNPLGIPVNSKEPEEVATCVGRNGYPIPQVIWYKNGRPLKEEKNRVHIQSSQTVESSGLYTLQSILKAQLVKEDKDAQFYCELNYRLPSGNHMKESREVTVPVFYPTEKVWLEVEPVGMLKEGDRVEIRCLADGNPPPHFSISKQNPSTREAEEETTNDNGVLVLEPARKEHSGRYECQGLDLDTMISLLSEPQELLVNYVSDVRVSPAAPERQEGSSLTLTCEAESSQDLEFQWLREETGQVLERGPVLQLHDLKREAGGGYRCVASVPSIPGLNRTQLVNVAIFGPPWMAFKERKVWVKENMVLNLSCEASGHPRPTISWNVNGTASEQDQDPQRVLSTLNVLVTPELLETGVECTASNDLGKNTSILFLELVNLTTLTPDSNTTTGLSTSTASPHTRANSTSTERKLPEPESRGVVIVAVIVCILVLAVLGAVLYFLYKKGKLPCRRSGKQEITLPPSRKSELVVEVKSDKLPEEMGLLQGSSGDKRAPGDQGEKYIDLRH

These are yes or no findings as the source states them, for the method shown. Binding seen in cells or lysates may run through a third protein. Here binding means that the protein was enriched with, or labelled near, the bait; the list need not be complete. Where a sequence is shown, tags or fusion partners need not be part of it.

This assay has as its target T1, Peanut agglutinin (PNA), agarose-conjugated (Arachis hypogaea) (UniProt P02872).
T1 sequence: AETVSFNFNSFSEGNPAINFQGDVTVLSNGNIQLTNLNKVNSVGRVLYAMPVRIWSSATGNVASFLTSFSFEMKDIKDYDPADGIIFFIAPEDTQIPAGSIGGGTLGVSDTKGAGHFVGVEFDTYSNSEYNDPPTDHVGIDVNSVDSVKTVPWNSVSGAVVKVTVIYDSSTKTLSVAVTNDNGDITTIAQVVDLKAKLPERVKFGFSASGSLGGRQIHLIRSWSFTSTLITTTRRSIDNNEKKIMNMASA
Description: affinity purification with mass spectrometry; cleared HUVEC lysate (PBS, 0.5% Triton X-100, 0.5% NP-40) applied to PNA-agarose, three washes with PBS, eluted with 0.2 M lactose/PBS, LC/MS-MS; only the target purified.

Turning to “MCAM (CD146), melanoma cell adhesion molecule (from UniProt P43121 24-646) (receptor)”, the binding entry is given as “binds”.
